Patent US20040191172A1, “Preventive or therapeutic agents for dermatitis or alopecia, evaluation method of the agents, and transgenic mouse” (priority 2003, published 2004)
At least one compound was matched to its structure with a doubt left.

Test system: K5/IL-18 Tg (+) mice
Assay: Suppression of spontaneous dermatitis in K5/IL-18 transgenic (Tg (+)) mice, appearance and HE histopathology of back skin
Format: in vivo
Details: Tg (+) mice within three days after birth, 1% (10 mg/mL) in 100 μL 0.5% CMC-Na/PBS applied to back skin for consecutive seven days, 10 days after birth
Source text: The spontaneous dermatitis (A) refers to an inflammation that reaches its peak approximately on the 8th to 12th day after birth of an IL-18-introduced mouse and disappears after about four weeks and that has been identified by the inventors of the present invention for the first time. Pathologically speaking, in this inflammation, acanthosis (epidermal thickening) , hyperkeratosis, and inflammatory cell infiltrations that neutrophilic leukocytes are contained in dermis can be observed in dermal tissue, a slight sponge state is present in the epidermal base, and abscess formation in the cuticle due to epidermal neutrophilic infiltrations is observed (FIG. 3).
The evaluation method of the present invention can be performed as a method for screening agents for preventing/treating autoimmune dermatitis. The screening can be performed, for example, by the procedures of administrating an agent to be tested in either stage, before or after the occurrence of the peak of spontaneous dermatitis, and comparing mice without administration (control) in terms of the presence or the absence of peak occurrence, the size of the peak, the speed of peak disappearance or the like.
Next, the agent of preventing/treating dermatitis of the present invention will be described more specifically by way of examples. Five to seven mice were grouped into one group, and agents to be tested of examples, comparative examples, reference examples or the like were administered to each group.
[A]control rabbit IgG antibody (Sigma) in an amount of 2 mg or [B] anti-asialo GM1 antibody (Wako) in an amount of 2 mg that was dissolved in 0.1 mL of PBS was administered intraperitoneally to K5/IL-18 Tg (IL-18 transgene (+); hereinafter, referred to as “Tg (+)”) mice within one day after birth.
Ten days after the administration of the antibodies, the skins of the backs of the mice of the two groups A and B was obtained, and fixed in 20% buffered formalin. The dermatitis was histopathologically examined by HE staining. […]

Structure (SMILES)	dermatitis, histopathology (HE staining) of back skin	dermatitis, histopathology (HE staining) of back skin (listed as Example 4)
C=CC[C@@H]1/C=C(\C)C[C@H](C)C[C@H](OC)[C@H]2O[C@@](O)(C(=O)C(=O)N3CCCC[C@H]3C(=O)O[C@H](/C(C)=C/[C@@H]3CC[C@@H](O)[C@H](OC)C3)[C@H](C)[C@@H](O)CC1=O)[C@H](C)C[C@@H]2OC [FK506]	suppress dermatitis, though not so much as the anti-asialo GM1 antibody (Example 2) or the anti-NK1.1 antibody (Example 3)	infiltration of inflammatory cells to dermis was also suppressed more than in the [A] administration group
C[C@@H]1C[C@H]2[C@@H]3CCC4=CC(=O)C=C[C@]4(C)[C@@]3(F)[C@@H](O)C[C@]2(C)[C@@]1(O)C(=O)CO [dexamethasone]	suppressed to some extent	–
